{"source": "patent US11261437B2", "about": "(Bioverativ Therapeutics Inc., priority 2012, dated 2022)", "key": {"[1]": {"assay": "general procedure: Fmoc solid-phase peptide synthesis; NovaPEG Rink Amide resin or NovaPEG TGT resin (Novabiochem); HCTU/DIPEA", "conditions": "for step yield: late stage modification step"}, "[2]": {"assay": "general procedure: Fmoc solid-phase peptide synthesis; NovaPEG Rink Amide resin; HCTU/DIPEA", "conditions": "whole synthesis, scale 0.2 mmol"}}}
{"substance": "Fmoc-Cys(Acm)-Gly-Gly-Gly-Gly-Dphe-Pip-Arg(Pbf)-PABOH", "values": [{"measurement": "step yield", "setting": "[1]", "result": 70, "unit": "%"}]}
{"substance": "Cys(Acm)-Gly-Gly-Gly-Gly-Dphe-Pip-Arg-PABC-rRAPGKLTCLASYCWLFWTGIA-NH2 (disulfide)", "values": [{"measurement": "step yield", "setting": "[1]; over 2 steps", "result": 12, "unit": "% over 2 steps"}]}
{"substance": "Fmoc-Cys(Acm)-Gly-Gly-Gly-Gly-Dphe-Pip-Arg-PABC-rRAPGK(Alloc)LTCLASYCWLFWTGIA-NH2", "values": [{"measurement": "conjugation yield", "setting": "[1]; conjugation step, over 2 steps", "result": 25, "unit": "% for 2 steps"}]}
{"substance": "rRAPGK(Alloc)LTCLASYCWLFWTGIA-NH2 (disulfide)", "values": [{"measurement": "isolated mass", "setting": "[2]", "result": 35, "unit": "mg"}]}
{"substance": "Fmoc-Cys(Acm)-Gly-Gly-Gly-Gly-Dphe-Pip-Arg(Pbf)-PABC-PNP", "values": [{"measurement": "step yield", "setting": "[1]", "result": 75, "unit": "%"}]}
